Data reported in doi:10.1101/2022.05.04.490592.
Results are given in words; binding and its absence hold for the method and conditions named. Binding seen in cells or lysates may run through a third protein. Some binding calls cover weakened binding; strength is not graded here. One block for each molecule: values may come before it.

By UniProt entry, the sequences of proteins in these tests, tags left out.
UniProt Q9NP66: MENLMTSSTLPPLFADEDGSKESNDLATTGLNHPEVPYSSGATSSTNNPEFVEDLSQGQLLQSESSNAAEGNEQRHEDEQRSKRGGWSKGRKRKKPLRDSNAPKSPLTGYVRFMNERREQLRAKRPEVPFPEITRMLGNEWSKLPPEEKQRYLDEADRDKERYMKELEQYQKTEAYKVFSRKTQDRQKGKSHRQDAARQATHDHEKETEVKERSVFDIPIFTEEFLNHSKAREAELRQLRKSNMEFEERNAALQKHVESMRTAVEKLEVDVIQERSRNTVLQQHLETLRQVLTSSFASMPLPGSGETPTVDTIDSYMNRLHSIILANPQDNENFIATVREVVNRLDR
UniProt Q14839: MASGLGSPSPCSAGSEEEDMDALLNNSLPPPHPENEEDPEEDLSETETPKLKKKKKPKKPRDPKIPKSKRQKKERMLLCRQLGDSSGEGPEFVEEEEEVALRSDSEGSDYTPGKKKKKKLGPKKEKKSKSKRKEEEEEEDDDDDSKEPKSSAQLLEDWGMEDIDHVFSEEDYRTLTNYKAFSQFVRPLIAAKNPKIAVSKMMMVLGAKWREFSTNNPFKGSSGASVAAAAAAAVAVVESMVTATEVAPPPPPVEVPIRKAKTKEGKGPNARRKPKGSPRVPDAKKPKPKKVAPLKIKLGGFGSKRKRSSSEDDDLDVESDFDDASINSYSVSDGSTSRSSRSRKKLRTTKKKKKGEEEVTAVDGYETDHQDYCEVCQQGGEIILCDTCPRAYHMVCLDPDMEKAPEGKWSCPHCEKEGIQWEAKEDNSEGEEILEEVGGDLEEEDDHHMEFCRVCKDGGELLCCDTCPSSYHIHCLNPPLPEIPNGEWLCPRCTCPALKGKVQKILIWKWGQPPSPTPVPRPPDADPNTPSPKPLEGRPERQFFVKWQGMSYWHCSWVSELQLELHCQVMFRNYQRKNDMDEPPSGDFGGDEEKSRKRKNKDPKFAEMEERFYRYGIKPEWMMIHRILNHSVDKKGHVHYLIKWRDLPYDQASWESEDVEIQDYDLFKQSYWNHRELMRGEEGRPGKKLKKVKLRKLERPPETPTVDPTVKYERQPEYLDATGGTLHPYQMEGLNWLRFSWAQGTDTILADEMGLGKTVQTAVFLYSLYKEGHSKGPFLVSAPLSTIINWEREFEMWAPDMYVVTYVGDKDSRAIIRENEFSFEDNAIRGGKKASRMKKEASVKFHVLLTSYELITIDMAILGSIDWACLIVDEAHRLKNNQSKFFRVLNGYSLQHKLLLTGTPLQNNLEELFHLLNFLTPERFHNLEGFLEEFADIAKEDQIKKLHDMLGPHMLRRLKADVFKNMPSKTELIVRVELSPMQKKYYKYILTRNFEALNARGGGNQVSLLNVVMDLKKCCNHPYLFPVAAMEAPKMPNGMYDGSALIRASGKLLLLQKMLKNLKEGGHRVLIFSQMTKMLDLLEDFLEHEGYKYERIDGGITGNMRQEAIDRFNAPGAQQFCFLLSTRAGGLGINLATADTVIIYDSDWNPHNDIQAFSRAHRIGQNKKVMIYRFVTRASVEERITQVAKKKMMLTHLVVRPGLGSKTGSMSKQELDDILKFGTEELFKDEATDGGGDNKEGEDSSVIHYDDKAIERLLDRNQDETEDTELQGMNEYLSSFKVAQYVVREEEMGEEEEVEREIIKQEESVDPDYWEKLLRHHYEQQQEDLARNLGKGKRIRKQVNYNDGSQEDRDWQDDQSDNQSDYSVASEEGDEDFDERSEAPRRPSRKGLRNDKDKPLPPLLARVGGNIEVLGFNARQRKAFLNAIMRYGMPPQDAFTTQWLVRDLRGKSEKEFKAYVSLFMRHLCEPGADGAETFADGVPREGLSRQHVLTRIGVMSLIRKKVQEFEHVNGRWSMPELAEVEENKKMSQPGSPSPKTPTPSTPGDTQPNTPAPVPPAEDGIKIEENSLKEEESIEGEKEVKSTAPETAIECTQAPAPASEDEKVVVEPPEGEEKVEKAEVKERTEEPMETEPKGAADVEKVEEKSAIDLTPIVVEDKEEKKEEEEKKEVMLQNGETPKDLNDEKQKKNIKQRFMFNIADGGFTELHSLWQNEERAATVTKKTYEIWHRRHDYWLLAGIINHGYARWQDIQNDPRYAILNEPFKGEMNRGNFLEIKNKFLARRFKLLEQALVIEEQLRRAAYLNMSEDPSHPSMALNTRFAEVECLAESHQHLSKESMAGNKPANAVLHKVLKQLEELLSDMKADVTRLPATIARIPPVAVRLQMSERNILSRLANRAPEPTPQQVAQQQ
UniProt Q13547: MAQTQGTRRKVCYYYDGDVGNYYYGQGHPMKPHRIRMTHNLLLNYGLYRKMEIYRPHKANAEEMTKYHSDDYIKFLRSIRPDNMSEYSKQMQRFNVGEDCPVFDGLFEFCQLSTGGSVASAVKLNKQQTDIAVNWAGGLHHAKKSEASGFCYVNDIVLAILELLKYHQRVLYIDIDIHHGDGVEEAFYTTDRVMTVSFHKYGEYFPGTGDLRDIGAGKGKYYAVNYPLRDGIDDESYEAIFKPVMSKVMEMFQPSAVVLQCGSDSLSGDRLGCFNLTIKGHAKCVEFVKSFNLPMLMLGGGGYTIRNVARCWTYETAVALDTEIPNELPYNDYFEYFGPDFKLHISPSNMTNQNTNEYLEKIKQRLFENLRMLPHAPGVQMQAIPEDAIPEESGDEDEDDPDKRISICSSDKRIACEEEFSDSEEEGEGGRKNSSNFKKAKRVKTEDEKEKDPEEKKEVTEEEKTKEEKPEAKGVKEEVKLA
UniProt Q92769: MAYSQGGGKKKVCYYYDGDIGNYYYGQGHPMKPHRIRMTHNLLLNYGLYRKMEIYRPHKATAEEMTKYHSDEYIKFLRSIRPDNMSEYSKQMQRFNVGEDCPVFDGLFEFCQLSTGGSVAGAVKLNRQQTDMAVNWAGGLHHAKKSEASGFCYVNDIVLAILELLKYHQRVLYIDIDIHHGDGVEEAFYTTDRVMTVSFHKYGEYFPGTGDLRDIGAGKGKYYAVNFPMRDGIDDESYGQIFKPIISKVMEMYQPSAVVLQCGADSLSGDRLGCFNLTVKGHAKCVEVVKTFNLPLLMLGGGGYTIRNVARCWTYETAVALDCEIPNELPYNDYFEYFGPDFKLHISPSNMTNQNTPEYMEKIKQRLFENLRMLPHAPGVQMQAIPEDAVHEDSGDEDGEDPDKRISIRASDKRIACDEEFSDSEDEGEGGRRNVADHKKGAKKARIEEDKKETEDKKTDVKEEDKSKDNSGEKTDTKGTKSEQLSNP
UniProt Q9UBB5: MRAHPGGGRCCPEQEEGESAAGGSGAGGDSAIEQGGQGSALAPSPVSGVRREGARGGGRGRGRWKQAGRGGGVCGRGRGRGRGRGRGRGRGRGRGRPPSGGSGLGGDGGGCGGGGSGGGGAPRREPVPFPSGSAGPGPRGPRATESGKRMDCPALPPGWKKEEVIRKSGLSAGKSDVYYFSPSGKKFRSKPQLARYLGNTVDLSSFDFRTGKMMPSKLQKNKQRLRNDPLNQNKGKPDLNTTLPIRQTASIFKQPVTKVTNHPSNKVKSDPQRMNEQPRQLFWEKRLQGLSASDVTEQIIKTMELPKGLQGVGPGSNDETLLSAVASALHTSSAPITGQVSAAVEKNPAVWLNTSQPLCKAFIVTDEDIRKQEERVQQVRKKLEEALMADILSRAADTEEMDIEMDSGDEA

What was measured:
[1] = target: GFP-HMG20A, co-transfected in HEK293 (Expi293F) cells (human) (UniProt Q9NP66); assay: co-IP
[2] = target: GFP-HMG20A (N-terminally GFP-tagged High Mobility Box 20A), stably expressed in HeLa Kyoto cells (human) (UniProt Q9NP66); assay: co-IP

binding [1]: binds
Molecule: FLAG-CHD4 (from UniProt Q14839 1-1912)

binding [1]: binds
Molecule: HDAC1-FLAG (from UniProt Q13547 1-482)

binding [2]: binds
Molecule: HDAC2, endogenous in HeLa Kyoto cells (from UniProt Q92769 1-488)

binding [2]: binds
Molecule: MBD2, endogenous in HeLa Kyoto cells (from UniProt Q9UBB5 1-411)

binding [2]: binds
B1: HMG20B (protein, UniProt Q9P0W2 1-317)
chain: MSHGPKQPGAAAAPAGGKAPGQHGGFVVTVKQERGEGPRAGEKGSHEEEPVKKRGWPKGKKRKKILPNGPKAPVTGYVRFLNERREQIRTRHPDLPFPEITKMLGAEWSKLQPTEKQRYLDEAEREKQQYMKELRAYQQSEAYKMCTEKIQEKKIKKEDSSSGLMNTLLNGHKGGDCDGFSTFDVPIFTEEFLDQNKAREAELRRLRKMNVAFEEQNAVLQRHTQSMSSARERLEQELALEERRTLALQQQLQAVRQALTASFASLPVPGTGETPTLGTLDFYMARLHGAIERDPAQHEKLIVRIKEILAQVASEHL

binding [2]: binds
B2: zinc finger protein ZNF512B (protein, UniProt Q96KM6 1-892)
chain: MTDPFCVGGRRLPGSSKSGPGKDGSRKEVRLPMLHDPPKMGMPVVRGGQTVPGQAPLCFDPGSPASDKTEGKKKGRPKAENQALRDIPLSLMNDWKDEFKAHSRVKCPNSGCWLEFPSIYGLKYHYQRCQGGAISDRLAFPCPFCEAAFTSKTQLEKHRIWNHMDRPLPASKPGPISRPVTISRPVGVSKPIGVSKPVTIGKPVGVSKPIGISKPVSVGRPMPVTKAIPVTRPVPVTKPVTVSRPMPVTKAMPVTKPITVTKSVPVTKPVPVTKPITVTKLVTVTKPVPVTKPVTVSRPIVVSKPVTVSRPIAISRHTPPCKMVLLTRSENKAPRATGRNSGKKRAADSLDTCPIPPKQARPENGEYGPSSMGQSSAFQLSADTSSGSLSPGSRPSGGMEALKAAGPASPPEEDPERTKHRRKQKTPKKFTGEQPSISGTFGLKGLVKAEDKARVHRSKKQEGPGPEDARKKVPAAPITVSKEAPAPVAHPAPGGPEEQWQRAIHERGEAVCPTCNVVTRKTLVGLKKHMEVCQKLQDALKCQHCRKQFKSKAGLNYHTMAEHSAKPSDAEASEGGEQEERERLRKVLKQMGRLRCPQEGCGAAFSSLMGYQYHQRRCGKPPCEVDSPSFPCTHCGKTYRSKAGHDYHVRSEHTAPPPEEPTDKSPEAEDPLGVERTPSGRVRRTSAQVAVFHLQEIAEDELARDWTKRRMKDDLVPETARLNYTRPGLPTLNPQLLEAWKNEVKEKGHVNCPNDCCEAIYSSVSGLKAHLASCSKGAHLAGKYRCLLCPKEFSSESGVKYHILKTHAENWFRTSADPPPKHRSQDSLVPKKEKKKNLAGGKKRGRKPKERTPEEPVAKLPPRRDDWPPGCRDKGARGSTGRKVGVSKAPEK
